Some of the results follow. Values are raw readings; no control value is given beside them.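 In the initial screen, polymyxin B was used at a concentration that permeabilizes Salmonella's outer membrane but not its inner membrane. Maximum growth was set by DMSO wells with or without polymyxin B. Since plates varied, data were ranked per plate, and compounds giving the lowest OD600 advanced as hits.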

This test relates to Salmonella enterica serovar Typhimurium SL1344. Put plainly: bacterial growth OD600 after 18 h with compound and polymyxin B; higher = more bacterial growth (less inhibition). The note with it: 50 µM, Mueller-Hinton broth.

On to `CC(C)(C)C(=O)Nc1ccnn1C1CCN(Cc2cc(F)cc(F)c2)CC1`, for which, under “polymyxin B 0.75 µg/mL”, the “bacterial growth OD600” value turned out to be 0.881.

Take `Cc1oc(-c2ccc(NC(=O)Cc3ccccc3)cc2)nc1CNC(=O)Cn1nc2ccccc2n1`: the “bacterial growth OD600” value (polymyxin B 0.75 µg/mL) amounted to 0.802. Take `COc1ccc(NC(=O)CCC2CCN(C(=O)c3cccnc3OC)CC2)c(OC)c1`: the “bacterial growth OD600” value (polymyxin B 1 µg/mL) was found to be 1.01. Same read-out and setting: next, `C=CCC(=O)N1CC[C@@H](N2CCN(CCc3ccccc3)CC2)[C@H](O)C1`: 0.852; `O=C(NC1CCCN(C2CCCCCC2)C1)c1ccccc1N1CCOCC1` (centres undefined): 1.12. As for `CCOc1cc(CN2Cc3cc(OC)ccc3OC(CC)C2)ccc1O` (centres undefined), the “bacterial growth OD600” value (polymyxin B 0.75 µg/mL) was determined as 0.779. `CCc1nc2cc(C(=O)N(CC3CC3)CC3CCCO3)cc(NC(=O)c3ccccc3OC)c2n1C` (centres undefined): where the note is “polymyxin B 0.75 µg/mL”, the “bacterial growth OD600” value is 0.87. With `CN(C(=O)c1ccccn1)C(Cc1ccccc1)C1CCN(C(=O)c2cc3ccccc3oc2=O)CC1` (centres undefined), the “bacterial growth OD600” value (polymyxin B 0.75 µg/mL) was determined as 0.945. For `CN(Cc1cnccn1)Cc1cn(C)nc1-c1ccc(C2CCCCC2)cc1`, the “bacterial growth OD600” value (polymyxin B 1 µg/mL) was determined as 0.528. `OCC1CCN(c2nc3nonc3nc2N2CCCCCC2)CC1`: the “bacterial growth OD600” value (polymyxin B 0.75 µg/mL) stood at 0.908.

Turning to `CCOC(=O)C1(Cc2ccccc2)CCN(Cc2cccn2-c2nccs2)CC1`, the “bacterial growth OD600” value (polymyxin B 1 µg/mL) worked out at 0.893. Consider `O=C(NCCc1ccncc1)C1CCCN(C2CCN(Cc3ccccc3)CC2)C1` (centres undefined), for which the “bacterial growth OD600” value (polymyxin B 1 µg/mL) turned out to be 0.85. With `NC(=O)[C@@H]1CCCN1Cc1nc(N2CCOCC2)c2cc(Cl)ccc2n1`, the “bacterial growth OD600” value (polymyxin B 0.75 µg/mL) was found to be 0.838. As to `Cc1ccc(CC2(CCC(=O)N3CCC(c4ccccc4F)C3)CCC(=O)N2)cc1` (centres undefined), the “bacterial growth OD600” value (polymyxin B 0.75 µg/mL) came out at 0.87. Consider `CCN(CC)C(=O)C1CCCN(Cc2nc(-c3ccc(F)c(OC)c3)oc2C)C1` (centres undefined), for which the “bacterial growth OD600” value (polymyxin B 1 µg/mL) amounted to 0.769. With `CN(CCC(=O)NCc1nc(NCCCc2ccccc2)c2ccccc2n1)C1CCS(=O)(=O)C1` (centres undefined), under “polymyxin B 0.75 µg/mL”, the “bacterial growth OD600” value amounted to 0.84. As for `COCCN(C)C(=O)C1CCC(=O)N(Cc2cccc(C(F)(F)F)c2)C1` (centres undefined), for the setting “polymyxin B 1 µg/mL”, the “bacterial growth OD600” value was 0.949. With `CC1(C)[C@H]2CC=C(CN3CCC(N4CCC(C(=O)NC5CC5)CC4)CC3)[C@@H]1C2`, under “polymyxin B 1 µg/mL”, the “bacterial growth OD600” value is 0.867. Regarding `Cc1c(CC(=O)NC2CCOC2=O)c2c(n1Cc1ccccc1F)CCCC2=O` (centres undefined), the “bacterial growth OD600” value (polymyxin B 1 µg/mL) came to 1.18.

The values are drawn from the supplement of paper PMC12889115.
